Laboratory results from patent publication US6706470B2, “Gene switches” (priority 1999, dated 2004).
At least one structure is not confirmed: it was looked up by name or label, or the drawing left a doubt.

Test system: DNA sequence AAAAAGGCG
Assay: Phage ELISA: zinc finger phage binding to DNA with and without distamycin A
Conditions: DNA concentration constant at 2 nM

Cn1cc(NC(=O)c2cc(NC(=O)c3cc(NC=O)cn3C)cn2C)cc1C(=O)NCCC(=N)N [distamycin A]
distamycin concentration at which induction of higher affinity DNA binding is observed: 10^−6M-10^−7M
